{"source": "patent US20210101970A1", "binders": {"B1": {"name": "Afucosyl humanized 11G2 154/155 (antibody, human IgG1, kappa, V domains shown)", "VH": "EVQLVESGGGLVQPGGSLRLSCAASGFTFTDFYMSWVRQAPGKGLEWVGFIRNKANGYTTEYSASVKGRFTISRDNAKNSLYLQMNSLRAEDTAVYYCARVYGSTLHYWGQGTLVTVSS", "VL": "DIQMTQSPSSLSASVGDRVTITCRASESVEYHGTSLMHWYQQKPGKAPKLLIYAASNVESGVPSRFSGSGSGTDFTLTISSLQPEDFATYYCQQSRKVPWTFGQGTKVEIKR", "modifications": "afucosylated Fc glycan (Asn297)"}, "B2": {"name": "16D7 (reference antibody) (antibody, human IgG1, kappa, V domains shown)", "VH": "QVQLKESGPGLVAPSESLSITCTVSGFSLIDYGVNWIRQPPGKGLEWLGVIWGDGTTYYNPSLKSRLSISKDNSKSQVFLKVTSLTTDDTAMYYCARIVYWGQGTLVTVSA", "VL": "DIVMTQAAPSVAVTPGASVSISCRSSKSLLHSSGKTYLYWFLQRPGQSPQLLIYRLSSLASGVPDRFSGSGSGTAFTLRISRVEAEDVGVYYCMQHLEYPYTFGGGTKLEIKR"}, "B3": {"name": "Humanized 11G2 154/155 (antibody, human IgG1, kappa, V domains shown)", "VH": "B1 VH", "VL": "B1 VL"}}, "key": {"[1]": {"target": "Insulin", "assay": "DELFIA polyreactivity plate assay"}, "[2]": {"target": "XC251", "assay": "FACS on cells expressing the CXCR5 construct"}, "[3]": {"target": "XC252", "assay": "FACS on cells expressing the CXCR5 construct"}, "[4]": {"target": "XC254", "assay": "FACS on cells expressing the CXCR5 construct"}}, "note": "Results are given in words; binding and its absence hold for the method and conditions named. For some assays here: Binding calls can cover weak binding; strength is not graded here.", "data": [{"binder": "B1", "values": [{"measurement": "binding", "setting": "[1]", "result": "no binding"}, {"measurement": "binding", "setting": "[2]", "result": "binds"}, {"measurement": "binding", "setting": "[3]", "result": "binds"}, {"measurement": "binding", "setting": "[4]", "result": "binds"}]}, {"binder": "B2", "values": [{"measurement": "binding", "setting": "[2]", "result": "binds"}, {"measurement": "binding", "setting": "[3]", "result": "binds"}, {"measurement": "binding", "setting": "[4]", "result": "binds"}]}, {"binder": "B3", "values": [{"measurement": "binding", "setting": "[1]", "result": "no binding (tested: 100 nM)"}]}]}
